Laboratory results published in PubChem BioAssay.
Some of the results follow. Shown are side measurements of this screen, not its main read-out; they come without a call. The list favours compounds with an active or inconclusive main result.

Experiment: Her2 expression decrease, cell viability multiplex – SKBR3 breast tumor cells, AlphaScreen, ATP viability, primary screen (AID 461);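 further: percent of carrier control wells set as 100% viability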
Conditions: SKBR3 Her2 protein level, 18-24 h, measured here: SKBR3 viability, ATP luminescence, at 10 µM

SMILES	viability [%]
CC(=N\O)/C(CN(C)C)=N/O	97
CCOC(=O)c1cc(-c2ccc(Cl)s2)nc2c1c(C)nn2C	66.5
CCN(CCCCOC(=O)c1ccc(OC)c(OC)c1)C(C)Cc1ccc(OC)cc1 (stereo unspecified)	88
CCn1c(=N)n(CC(=O)C23CC4CC(CC(C4)C2)C3)c2ccccc21	42.5
Cc1cc(C)c2ccc(N)nc2c1O	87.5
CN1CC=C2C(C#N)=C(N)C(C#N)(C#N)C(c3cccc(Cl)c3Cl)C2C1 (stereo unspecified)	115
CCOCC(=O)Nc1c(C(=O)Nc2ccc(OC)cc2OC)oc2ccccc12	65.5
NC(=O)c1sc2nc(N3CCCCC3)c3c(c2c1N)CCCC3	75
Cc1ccccc1Cc1c(C)nc2c(C(=O)N3CCN(Cc4ccc5c(c4)OCO5)CC3)cnn2c1C	103
N#Cc1cc2ccc(N3CCOCC3)cc2cc1C#N	85
O=C(Nc1ccc2nn(-c3ccccc3)nc2c1)c1ccc(Br)o1	67.5
[O-][n+]1onc2c1CCc1nnc(-c3ccccc3)cc1-2	93.5
Cc1cc(O)c(NC(=O)c2ccc(Br)o2)cc1C	98
CCc1ccc(Nc2cc(=O)n(C3CCCCC3)c(=O)[nH]2)cc1	136
CC(C)CC1NC(=O)N(CC(=O)N2CCN(S(=O)(=O)c3ccc(Cl)cc3)CC2)C1=O (stereo unspecified)	97
Cc1ccc2c(c1)NC(=O)C(CC(=O)NCCCN1CCN(c3cc(Cl)ccc3C)CC1)O2 (stereo unspecified)	75.5
CCOC(=O)CSc1nnc(-c2ccc(NS(=O)(=O)c3ccc(C)cc3)cc2)o1	87
O=C(CN1C(=O)CC(c2ccco2)Sc2ccccc21)Nc1ccc2c(c1)OCCO2 (stereo unspecified)	130

Molecules from the list above that contain a cyano group:
SMILES	viability [%]
CN1CC=C2C(C#N)=C(N)C(C#N)(C#N)C(c3cccc(Cl)c3Cl)C2C1 (stereo unspecified)	115
N#Cc1cc2ccc(N3CCOCC3)cc2cc1C#N	85

Later entries.

SMILES	viability [%]
O=C(c1cc(-c2cccc(O)c2)on1)N1CCN(C(c2ccccc2)c2ccccc2)CC1	74
COc1ccc(-c2nnc(SCC(=O)Nc3sc4c(c3C#N)CCC4)n2CC2CCCO2)cc1 (stereo unspecified)	89
Cc1ccc2c(CC(=O)OCc3csc(C)n3)coc2c1	106
Clc1cccc(-c2nnc(-c3ccccc3)o2)c1	57
COc1ccccc1NC(=O)c1oc2ccccc2c1NC(=O)c1cc(OC)c(OC)c(OC)c1	56.5
COCCn1c(-c2ccco2)nc2nc3ccccc3nc21	99.5
Cc1[nH]nc2c1C(c1ccc(F)cc1)C1=C(CC(C)(C)CC1=O)N2 (stereo unspecified)	126
O=C(NCc1ccccc1)C1CCCN(S(=O)(=O)c2cccnc2)C1 (stereo unspecified)	92
CCOC(=O)c1ccccc1NC1c2ccccc2C(=O)N1C1CCN(C(=O)OCC)CC1 (stereo unspecified)	126
CC(C)[C@H](NC(=O)OC(C)(C)C)c1nnc(S(=O)(=O)Cc2c(F)cccc2Cl)o1	108
OC1C=CSc2nc3ccccc3n21 (stereo unspecified)	83.5
CCN1CCc2c(C#N)c(N3CCCCC3)nc(NCc3ccccc3)c2C1	103
Cc1ccc2nc(NC(=O)C3CCCN(S(=O)(=O)c4cccc5nonc45)C3)sc2c1 (stereo unspecified)	97.5
CCc1ccccc1NC(=O)C(CC)Sc1nc2cc3c(cc2c(=O)n1Cc1ccco1)OCO3 (stereo unspecified)	95.5
COc1cc(C2Nc3cccc4cccc(c34)N2)cc(OC)c1O	92.5
O=C(CNCCC1=CCCCC1)Nc1ccccc1N1CCCCC1	102
CCCCCCCCNC(C)C(O)c1ccc(SC(C)C)cc1 (stereo unspecified)	41
C=CCOc1ccc(C2/C(=C(\O)c3c(C)[nH]c(C(=O)OC)c3C)C(=O)C(=O)N2CCN(C)C)cc1 (stereo unspecified)	95
